Measurements as given in article PMC11288737.
Results are given in words; binding and its absence hold for the method and conditions named. Binding can be weak; no strength is given.

Protein sequences, listed by entry. Tags and fused reporters are not part of them. Lines headed by an entry give the natural chain unless they say otherwise; changes in a name come on top.
UniProt I1JZC3: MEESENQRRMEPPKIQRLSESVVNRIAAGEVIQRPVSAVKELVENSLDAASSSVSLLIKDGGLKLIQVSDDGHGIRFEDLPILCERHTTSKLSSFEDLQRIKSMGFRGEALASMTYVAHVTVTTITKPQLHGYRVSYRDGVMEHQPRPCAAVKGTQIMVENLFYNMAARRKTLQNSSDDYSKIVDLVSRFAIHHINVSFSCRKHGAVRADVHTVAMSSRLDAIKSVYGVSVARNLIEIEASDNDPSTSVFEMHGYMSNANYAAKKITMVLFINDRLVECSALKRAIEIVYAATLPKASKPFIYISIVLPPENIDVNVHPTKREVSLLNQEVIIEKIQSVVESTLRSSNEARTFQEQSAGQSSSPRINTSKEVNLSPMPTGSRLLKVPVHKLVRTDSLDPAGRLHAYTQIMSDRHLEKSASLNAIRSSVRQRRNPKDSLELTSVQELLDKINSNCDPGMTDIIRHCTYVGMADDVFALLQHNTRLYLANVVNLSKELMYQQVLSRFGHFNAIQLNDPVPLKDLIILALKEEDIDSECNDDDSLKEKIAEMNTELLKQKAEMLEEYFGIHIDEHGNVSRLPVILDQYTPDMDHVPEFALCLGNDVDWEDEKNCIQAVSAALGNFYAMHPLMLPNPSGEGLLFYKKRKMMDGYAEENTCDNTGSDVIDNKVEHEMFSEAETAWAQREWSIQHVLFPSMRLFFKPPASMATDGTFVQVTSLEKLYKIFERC
UniProt A0A0R0HRB2: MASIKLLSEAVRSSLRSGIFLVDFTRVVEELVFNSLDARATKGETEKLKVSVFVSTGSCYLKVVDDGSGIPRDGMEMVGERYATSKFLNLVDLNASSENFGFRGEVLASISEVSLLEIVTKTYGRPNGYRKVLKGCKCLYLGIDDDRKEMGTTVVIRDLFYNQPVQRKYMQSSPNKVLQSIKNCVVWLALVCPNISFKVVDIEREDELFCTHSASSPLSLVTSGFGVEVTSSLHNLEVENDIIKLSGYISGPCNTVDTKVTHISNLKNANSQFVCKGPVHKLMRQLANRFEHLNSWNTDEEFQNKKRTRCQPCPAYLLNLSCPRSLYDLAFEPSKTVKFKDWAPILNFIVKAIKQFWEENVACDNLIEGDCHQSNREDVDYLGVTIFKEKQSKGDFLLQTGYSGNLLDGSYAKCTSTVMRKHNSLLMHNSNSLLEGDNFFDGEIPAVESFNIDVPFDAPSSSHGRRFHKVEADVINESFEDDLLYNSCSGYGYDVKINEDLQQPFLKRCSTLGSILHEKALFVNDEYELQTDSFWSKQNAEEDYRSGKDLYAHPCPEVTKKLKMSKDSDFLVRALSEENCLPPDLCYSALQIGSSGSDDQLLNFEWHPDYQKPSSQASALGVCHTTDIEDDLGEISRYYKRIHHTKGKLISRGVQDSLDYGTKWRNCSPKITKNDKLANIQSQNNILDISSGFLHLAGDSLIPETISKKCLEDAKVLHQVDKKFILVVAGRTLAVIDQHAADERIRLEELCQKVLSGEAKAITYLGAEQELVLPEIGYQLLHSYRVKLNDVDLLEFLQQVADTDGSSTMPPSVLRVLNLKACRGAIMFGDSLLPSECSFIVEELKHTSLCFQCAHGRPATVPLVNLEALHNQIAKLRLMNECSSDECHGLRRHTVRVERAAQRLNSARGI

Biological target: GST-GmMLH1 (soybean (Glycine max)) (UniProt I1JZC3)
Test: pull-down; 2 µg of GST- or His-tagged proteins mixed in 400 µL binding buffer at 4 °C for 4 h, then GST resin at 4 °C for 2 h; eluted proteins detected with anti-GST or anti-His; both purified

His-GmMLH3B (from UniProt A0A0R0HRB2)
binding: binds
